Residue numbers refer to the chain shown, from its start. These are yes or no findings as the source states them, for the method shown. Some results given as binding are weak or reduced against the parent protein; the word gives no strength.

The text below walks through data of patent US20100166764A1 (Eli Lilly, published 2010).

In assay [1] the target is T1, mature myostatin (human, murine, rat, chicken, turkey, canine, equine and porcine (one mature sequence)).
T1 sequence: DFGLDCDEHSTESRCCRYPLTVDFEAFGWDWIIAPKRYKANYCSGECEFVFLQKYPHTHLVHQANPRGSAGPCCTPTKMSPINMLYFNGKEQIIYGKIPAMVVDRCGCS
The assay can be described thus: ELISA on plate-coated myostatin, periprep Fab in serial dilution, detection with goat anti-human-kappa-AP, O.D. against Fab concentration (ng/ml). Background: An ELISA detects its analyte on a solid surface through an enzyme-linked reagent.

Assay [2] has the same target. The assay can be described thus: ELISA, myostatin coated, periprep Fab titrated, anti-human-kappa-AP.

B1: 510C2 Fab (Fab, V domains shown)
VH: QVTLRESGPALVKPTQTLTLTCTFSGFSLRKVGRSVSWIRQPPGKALEWLAHIYWDDDKRYNPSLRNRLTISKDTSKNQVVLTMTNMDPVDTATYYCARRAITTVIGGGTFDYWGQGTTVTVSS
VL: DIQMTQSPSSLSASVGDRVTITCSASSSISYMHWYQQKPGKAPKLLIYDTSKLARGVPSRFSGSGSGTDFTLTISSLQPEDFATYYCQQWYRNPLTFGGGTKVEIK
For the molecule B1, the binding entry in assay [1] and in assay [2] was “binds” throughout.

B2: 510C2 Fab with the Asn residue in CDRL3 replaced with H (Fab, V domains shown)
VH: B1 VH
VL: B1 VL with N93H
As to B2, the binding result in assay [1] and in assay [2] was “binds” in each case.

B3: 510C2 Fab with the Asn residue in CDRL3 replaced with valine (Fab, V domains shown)
VH: B1 VH
VL: B1 VL with N93V
In the case of B3, in assay [2], the binding result is on record as “binds”.

B4: 510C2 Fab with the Asn residue in CDRL3 replaced with aspartic acid (Fab, V domains shown)
VH: B1 VH
VL: B1 VL with N93D
B4: the binding result in assay [2] is given as “binds”.

B5: 510C2 Fab with the Asn residue in CDRL3 replaced with leucine (Fab, V domains shown)
VH: B1 VH
VL: B1 VL with N93L
As for B5, in assay [2], the binding entry is on record as “binds”.

B6: 510C2 Fab with the Asn residue in CDRL3 replaced with arginine (Fab, V domains shown)
VH: B1 VH
VL: B1 VL with N93R
On to B6, for which the binding entry in assay [2] was “binds”.

B7: 510C2 Fab with the Asn residue in CDRL3 replaced with methionine (Fab, V domains shown)
VH: B1 VH
VL: B1 VL with N93M
For the molecule B7, in assay [2], the binding entry is “binds”.

B8: 510C2 Fab with the Asn residue in CDRL3 replaced with isoleucine (Fab, V domains shown)
VH: B1 VH
VL: B1 VL with N93I
For B8, the binding entry in assay [2] is “binds”.

B9: 510C2 Fab with the Asn residue in CDRL3 replaced with proline (Fab, V domains shown)
VH: B1 VH
VL: B1 VL with N93P
Turning to B9, in assay [2], the binding entry is “binds”.

B10: 510C2 Fab with the Asn residue in CDRL3 replaced with tyrosine (Fab, V domains shown)
VH: B1 VH
VL: B1 VL with N93Y
For the molecule B10, the binding result in assay [2] is on record as “binds”.

B11: 510C2 Fab with the Asn residue in CDRL3 replaced with phenylalanine (Fab, V domains shown)
VH: B1 VH
VL: B1 VL with N93F
As to B11, the binding result in assay [2] was “binds”.

B12: 510C2 Fab with the Asn residue in CDRL3 replaced with T (Fab, V domains shown)
VH: B1 VH
VL: B1 VL with N93T
Take B12: the binding entry in assay [1] and in assay [2] was “binds” in each case.

B13: 510C2 Fab with the Asn residue in CDRL3 replaced with tryptophan (Fab, V domains shown)
VH: B1 VH
VL: B1 VL with N93W
Consider B13, for which the binding result in assay [2] is given as “binds”.

B14: 510C2 Fab with the Asn residue in CDRL3 replaced with S (Fab, V domains shown)
VH: B1 VH
VL: B1 VL with N93S
Regarding B14, the binding result in assay [1] and in assay [2] was “binds” in each case.

B15: 510C2 Fab with the Asn residue in CDRL3 replaced with glutamic acid (Fab, V domains shown)
VH: B1 VH
VL: B1 VL with N93E
With B15, the binding result in assay [2] was “binds”.

B16: 510C2 Fab with the Asn residue in CDRL3 replaced with A (Fab, V domains shown)
VH: B1 VH
VL: B1 VL with N93A
Take B16: the binding entry in assay [1] and in assay [2] was “binds” each time.

B17: 510C2 Fab with the Asn residue in CDRL3 replaced with glutamine (Fab, V domains shown)
VH: B1 VH
VL: B1 VL with N93Q
With B17, in assay [2], the binding entry is “binds”.

B18: 510C2 Fab with the Asn residue in CDRL3 replaced with glycine (Fab, V domains shown)
VH: B1 VH
VL: B1 VL with N93G
As for B18, the binding result in assay [2] is “binds”.

B19: 510C2 Fab with the Asn residue in CDRL3 replaced with cysteine (Fab, V domains shown)
VH: B1 VH
VL: B1 VL with N93C
Take B19: the binding entry in assay [2] is “binds”.

B20: 510C2 Fab with the Asn residue in CDRL3 replaced with lysine (Fab, V domains shown)
VH: B1 VH
VL: B1 VL with N93K
Regarding B20, in assay [2], the binding entry was “binds”.
